These are yes or no findings as the source states them, for the method shown. In cells and extracts the contact can be indirect. A yes stands for co-enrichment or nearness to the bait. Other partners may have been found. Tags and fused reporters may be left off the sequences shown.
Target: T1, GST fusion protein of the RUN domain of mouse Plekhm1 (mouse) (UniProt Q7TSI1)
T1 sequence: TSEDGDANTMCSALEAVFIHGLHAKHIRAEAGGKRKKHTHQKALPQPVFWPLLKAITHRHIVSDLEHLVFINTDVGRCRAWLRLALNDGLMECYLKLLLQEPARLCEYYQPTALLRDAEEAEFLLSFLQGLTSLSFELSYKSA
Assay: affinity purification with mass spectrometry; 2 µg GST or GST fusion protein on glutathione beads, 2 mg mature osteoclast lysate, 2 hours at 4°C, IP buffer (20 mM Hepes pH 7.4, 120 mM NaCl, 5% glycerol, 0.5 mM EDTA, 0.2% NP-40); Coomassie blue staining and mass spectrometry of the band; only the target purified

B1: LIS1 (PAFAH1b1, platelet-activating factor acetylhydrolase isoform 1b subunit 1), endogenous (protein, UniProt P63005 1-410)
chain: MVLSQRQRDELNRAIADYLRSNGYEEAYSVFKKEAELDMNEELDKKYAGLLEKKWTSVIRLQKKVMELESKLNEAKEEFTSGGPLGQKRDPKEWIPRPPEKYALSGHRSPVTRVIFHPVFSVMVSASEDATIKVWDYETGDFERTLKGHTDSVQDISFDHSGKLLASCSADMTIKLWDFQGFECIRTMHGHDHNVSSVAIMPNGDHIVSASRDKTIKMWEVQTGYCVKTFTGHREWVRMVRPNQDGTLIASCSNDQTVRVWVVATKECKAELREHEHVVECISWAPESSYSSISEATGSETKKSGKPGPFLLSGSRDKTIKMWDVSTGMCLMTLVGHDNWVRGVLFHSGGKFILSCADDKTLRVWDYKNKRCMKTLNAHEHFVTSLDFHKTAPYVVTGSVDQTVKVWECR
  binding: binds

Reference: publication PMC3207863
